PubChem BioAssay AID1347426 (Functional Genomics Laboratory (NCATS/FGL), 2020)
Screen size: about 31,000 sequences; about 1,400 (4.5%) were called active.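 How the source made its calls: active means median seed-adjusted z-score above 1 or below -1; inactive means the rest.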 The list shows a part of the results.

Assay: Novel Modifiers of Survival Motor Neuron (SMN) Protein: Gene Identification via Genome-wide siRNA Screen;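 further: luminescence tracks full-length SMN protein made from the SMN2 reporter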
Settings: HEK293T SMN2-luciferase reporter, siRNA knockdown, 72 h; actives lie on both sides
Procedure, shortened: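 Genome-wide siRNA screen (10418 genes, 3 siRNAs each, 1 pmol per well) by reverse transfection in HEK293T cells stably carrying an SMN2-luciferase reporter; luminescence after 72 hours, normalized to negative-control siRNA, log10-transformed, MAD-scored.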

Sequence | median seed-adjusted z-score
AGACGACUGUUACAAGUUUTT against BACE1 | inactive: -0.537
GCAACUGAAUUGAGUAUAATT against STX6 | inactive: 0.748
GGUACACCCUCUUAUAUCATT against GANAB | inactive: 0.269
GCUGUAGAGUUGUAUGGAATT against BTN1A1 | inactive: 0.291
AGCCCUCUUCUGACACUAATT against SERPINH1 | inactive: 0.186
CAGCACCGCGACUACAUUATT against FUT7 | inactive: -0.146
GGUUACUAAGAGACUAAAATT against AGPAT9 | inactive: 0
GCAUUGAGAUUCCUGCAGATT against PKM2 | inactive: -0.0312
GGAAAAACCUUCUACCUGATT against ZNF12 | inactive: -0.144
AAUUCUUGAUCAUCUGCAATT against LOC158381 | inactive: 0
CCAUCUUAAACUCGCUCUATT against GPR114 | inactive: 0.805
CGACUACAUCAUGUCCUUUTT against MOGAT3 | inactive: -0.383
GAUCCGUUCUGAUUAGUGATT against EZH1 | inactive: 0.268
GCAGUGUCAUCUGCAACAATT against EIF2B3 | inactive: -0.271
GCAUUCACCAGAACGAGAATT against RIMS1 | inactive: 0
GGUUUCAAGAUAACCCAAATT against POU2F3 | active: -1.53
GCAUCCUACUUGUCCUAAUTT against REST | inactive: 0.416
GGAAUUUUGUAUUCUGUUUTT against MKNK2 | inactive: 0.281
GUCUCACCAUGAACUCCAATT against LEPRE1 | inactive: 0.121
UGACAAACUUAGGAGAAAATT against CALM1 | inactive: 0.355
ACAGCGCUCUCAAUCCCUUTT against GPR150 | inactive: -0.129
CAAGCUACGUAGAGAUCUATT against KIFC1 | inactive: 0.0417
GGACUAUGAGCCUACCAAATT against RALA | inactive: 0.553

2 entries from above, tab-delimited:
Sequence	median seed-adjusted z-score
GUCUCACCAUGAACUCCAATT against LEPRE1	inactive: 0.121
ACAGCGCUCUCAAUCCCUUTT against GPR150	inactive: -0.129

Look-ups from the results shown:
GGUUACUAAGAGACUAAAATT against AGPAT9 – median seed-adjusted z-score: inactive: 0
AGACGACUGUUACAAGUUUTT against BACE1 – median seed-adjusted z-score: inactive: -0.537
GCAUUCACCAGAACGAGAATT against RIMS1 – median seed-adjusted z-score: inactive: 0

(listing goes on)

Sequence | median seed-adjusted z-score
CAGAUGCCUUGAUUCGCGATT against ZNF543 | inactive: 0
CAUUCAAUCCGGACCAUUUTT against CYP2J2 | inactive: 0.00659
ACAUCAUCGACGAGAAUAATT against LHX1 | inactive: 0
CAGUCUUGAUUGAUAUGGATT against TUBE1 | inactive: -0.00933
CCAUGGAAGAGCUUGCUGATT against FMO5 | inactive: 0.0069
CCUGCUAAGUAGCAUUGAATT against KLHL12 | inactive: -0.0991
GGUCUACACUGACUACGCUTT against DNAH2 | inactive: -0.342
CGGUGCUGCUAGACGUGAATT against HSPB6 | inactive: 0.394
GGAGUUUGUUUGCAAGUAUTT against RREB1 | inactive: -0.414
GGCCUCUCAUGCUUAGUUATT against PGGT1B | inactive: -0.164
GGAGCGGUUCAGAUCAAUATT against RAB39 | inactive: -0.408
GCACAUACCCUGCAGAAGATT against PLIN | inactive: 0.166
GGGUCUCAAUGGGUCUCAUTT against NGB | inactive: 0
GGAUACCCAAUGCAAAUUATT against MMP16 | inactive: 0.144
GGAGGAGUGUUGGAGUAUUTT against RHOBTB3 | inactive: 0.256
GCACAGAGGAACGAACUAATT against PSMC5 | active: -1.06
GAUGCUGUAUGAUUAUGUUTT against POLD3 | inactive: -0.161
GUAGCGUAACCAACAUUUATT against OLIG1 | inactive: -0.387
GGCAGUGUUUAUUUACUAUTT against RHBDL2 | inactive: 0.0701
CGACUUGCGCAAGCAUGAATT against ZNF668 | inactive: 0
GCAGAUACAUUGAUCGCAUTT against PRPF8 | active: -1.54
GGACUAUCUGCAUAGCUUATT against ATP2B4 | inactive: 0
CAAGGACCAGAAUAUCUUUTT against RBM28 | inactive: 0.649

Sequence | median seed-adjusted z-score
GGGAAUUCCUUAUAGAGUUTT against DPH5 | inactive: 0
AGCUGCACAUGGAAGGGUUTT against LIN28 | inactive: -0.348
GCAGGCUAAUCGCAAUGAATT against ANXA13 | inactive: -0.467
UGGGAGAAGUACAACAAUATT against FAM12A | inactive: 0.08
GGUUGCUAUCAAUACCCUUTT against SLC22A18 | inactive: -0.654
CAUUAUCACUGGUGCACUUTT against CHN1 | inactive: 2.1e-05
GGCUCCUCCUUGUACUCAATT against FOXO3 | inactive: -0.712
UGUUCAGUCUGGAAUUUCATT against MAP2K1 | inactive: 0.942
ACUCAUCUAAGGAUCUAAATT against KITLG | inactive: 0.119
CCCAAGAACUGCUACGUCATT against SMPD2 | inactive: -0.406
CGAGCAGUAUGAAUAUCAUTT against CDC45L | inactive: -0.599
AGUGAGCACCCUUACCUGATT against NOTCH3 | inactive: 0.395
GAUCCACGUUUCAAUGAUATT against CSNK2A1 | inactive: -0.408
GGAGGGUGCAUGUACAUCUTT against ORC1L | inactive: -0.536
GAAUGACUGAUGAAGUCGATT against KIF15 | inactive: -0.873
GCUCUGAUCUUCGAAAACATT against ZNF596 | inactive: 0.486
GCCUCAACAUCGACGGCAATT against DIRAS1 | inactive: -0.751
UGACAGCUGUAGCAACUUUTT against SH3BP5 | inactive: -0.707
GCAUUUAUCCGAGGAAACATT against LSM6 | inactive: -0.0501
AGUCACAACUGGUCUAUCATT against LGALS3BP | inactive: 0.187
ACAUAUCCUCAGAAUUUAATT against UBE2T | inactive: -0.0157
UCAGUUACCUGCAUACCAATT against AEBP1 | inactive: -0.0536
GGAACAACGACAAGACAGATT against MICAL1 | inactive: 0.31
